Measured values published in PMC12198292, “Advancing in vitro assessment of iodide uptake inhibition: integrating a novel biotransformation pretreatment step” (Archives of Toxicology, 2025).

How the values were obtained:
FRTL-5 cells = test: Neutral red uptake viability assay, FRTL-5; settings: mean±SD, 2 h exposure
HEK293T NIS C cells = test: Neutral red uptake viability assay, HEK293T NIS C; settings: mean±SD, 2 h exposure

Cc1cc(NS(=O)(=O)c2ccc(N)cc2)no1 [SMX, Sulfamethoxazole, reference compound]
NR IC20 FRTL-5 (FRTL-5 cells): n.e. / n.e. | NR IC20 HEK293T NISC (HEK293T NIS C cells): n.e. / n.e.
